Measurements published in publication PMC11712038.
Results are given in words; binding and its absence hold for the method and conditions named.

Protein sequences, listed by entry. Tags and fused reporters are not part of them. Residues count along the entry.
UniProt Q9Y6W8, residues 21-199: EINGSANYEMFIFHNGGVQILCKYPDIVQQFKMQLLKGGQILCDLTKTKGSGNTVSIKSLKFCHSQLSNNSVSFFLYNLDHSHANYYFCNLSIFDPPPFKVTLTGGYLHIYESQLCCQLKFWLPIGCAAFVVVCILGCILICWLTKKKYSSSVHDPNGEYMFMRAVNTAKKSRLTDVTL
UniProt P01009, residues 25-418: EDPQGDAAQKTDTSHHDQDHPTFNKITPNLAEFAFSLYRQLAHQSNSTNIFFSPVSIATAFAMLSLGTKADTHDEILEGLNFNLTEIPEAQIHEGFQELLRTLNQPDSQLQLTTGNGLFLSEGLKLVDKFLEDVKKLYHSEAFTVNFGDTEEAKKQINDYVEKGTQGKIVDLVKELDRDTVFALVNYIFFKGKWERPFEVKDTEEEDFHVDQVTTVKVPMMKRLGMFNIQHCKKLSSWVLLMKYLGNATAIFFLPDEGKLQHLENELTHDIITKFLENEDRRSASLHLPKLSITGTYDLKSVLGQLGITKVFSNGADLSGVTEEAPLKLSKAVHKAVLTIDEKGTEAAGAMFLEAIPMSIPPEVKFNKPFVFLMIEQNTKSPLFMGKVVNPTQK

Target: ICOS on primary human T cells (human (endogenous in primary CD4+ T cells and Tregs)) (UniProt Q9Y6W8)
Test: ELISA; CD4+ T cells incubated with biotinylated FH or biotinylated α1-AT for 2 hours at 37°C and lysed; lysates on plates coated with anti-ICOS; detection with streptavidin-HRP; only the binder purified

- binding: no binding
Substance: alpha-1 antitrypsin (α1-AT), purified from human plasma (from UniProt P01009 25-418)
